{"source": "PubChem BioAssay AID1053208, Peter MacCallum Cancer Centre | 2014", "screen": "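Genes whose silencing cuts survival of bone tumour cells only with doxorubicin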 (primary screen)", "system": "mouse osteosarcoma cells, early-passage culture from an engineered mouse model of fibroblastic bone tumour", "knock-down reagent": "siRNA pool against mouse genes, 40 nM", "duration": "about 120 h (48 h before drug, then 72 h with drug)", "treatment": "doxorubicin 100 nM for 72 h, roughly 30-40% inhibitory dose", "measured": "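Viability read as ATP luminescence after 72 h of 100 nM doxorubicin or none, duplicate wells averaged, scaled to non-targeting siRNA, then expressed as robust z-scores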", "direction": "viability z-score with doxorubicin: higher = more viable cells under doxorubicin; viability z-score without drug: higher = more viable cells with knock-down alone", "call rule": "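Called active if knock-down leaves viability unchanged without drug (z within -2 to 2) but lowers it with doxorubicin (z at or under -2)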", "note": "Here is one part, drawn at random, of about 17,000 deposited reagents. 788 of them (4.7%) were called active. 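Calls rest on z-score classes alone; an extra cut-off of viability at most 70% of control was not applied to them.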 Not all columns of the deposit are shown. No sequences are given here."}
{"gene knocked down": "Aspm", "combined z-score class": "no change with or without drug", "viability z-score with doxorubicin": 0.34, "viability z-score without drug": 0.67, "activity call": "inactive"}
{"gene knocked down": "Tsg101", "combined z-score class": "no change with or without drug", "viability z-score with doxorubicin": -1.12, "viability z-score without drug": 1.52, "activity call": "inactive"}
{"gene knocked down": "Fam3b", "combined z-score class": "no change with or without drug", "viability z-score with doxorubicin": 1.46, "viability z-score without drug": 0.34, "activity call": "inactive"}
{"gene knocked down": "Prxl2c", "combined z-score class": "low cell count with doxorubicin only", "viability z-score with doxorubicin": -3.6, "viability z-score without drug": -1.01, "activity call": "active"}
{"gene knocked down": "Prima1", "combined z-score class": "high cell count without drug only", "viability z-score with doxorubicin": 1.12, "viability z-score without drug": 2.19, "activity call": "inactive"}
{"gene knocked down": "Atl1", "combined z-score class": "no change with or without drug", "viability z-score with doxorubicin": 1.35, "viability z-score without drug": 0.51, "activity call": "inactive"}
{"gene knocked down": "Sertad3", "combined z-score class": "no change with or without drug", "viability z-score with doxorubicin": 1.35, "viability z-score without drug": 1.01, "activity call": "inactive"}
{"gene knocked down": "Grb10", "combined z-score class": "no change with or without drug", "viability z-score with doxorubicin": 0.67, "viability z-score without drug": -0.51, "activity call": "inactive"}
{"gene knocked down": "Tubb2a", "combined z-score class": "no change with or without drug", "viability z-score with doxorubicin": 0.22, "viability z-score without drug": 0.67, "activity call": "inactive"}
{"gene knocked down": "Or13e8", "combined z-score class": "no change with or without drug", "viability z-score with doxorubicin": -1.35, "viability z-score without drug": -0.84, "activity call": "inactive"}
{"gene knocked down": "Frmd3", "combined z-score class": "no change with or without drug", "viability z-score with doxorubicin": -1.35, "viability z-score without drug": -0.17, "activity call": "inactive"}
{"gene knocked down": "Prpf8", "combined z-score class": "no change with or without drug", "viability z-score with doxorubicin": -0.45, "viability z-score without drug": -0.84, "activity call": "inactive"}
{"gene knocked down": "Pafah1b2", "combined z-score class": "no change with or without drug", "viability z-score with doxorubicin": 0.67, "viability z-score without drug": -0.84, "activity call": "inactive"}
{"gene knocked down": "Gm4836", "combined z-score class": "no change with or without drug", "viability z-score with doxorubicin": -0.79, "viability z-score without drug": -0.67, "activity call": "inactive"}
{"gene knocked down": "C530047H08Rik", "combined z-score class": "no change with or without drug", "viability z-score with doxorubicin": 0.11, "viability z-score without drug": 0.84, "activity call": "inactive"}
{"gene knocked down": "Pcdhb13", "combined z-score class": "high cell count with doxorubicin only", "viability z-score with doxorubicin": 2.02, "viability z-score without drug": 1.01, "activity call": "inactive"}
{"gene knocked down": "Slc18a1", "combined z-score class": "low cell count with doxorubicin only", "viability z-score with doxorubicin": -2.14, "viability z-score without drug": -0.34, "activity call": "active"}
{"gene knocked down": "Saraf", "combined z-score class": "no change with or without drug", "viability z-score with doxorubicin": -0.9, "viability z-score without drug": 1.35, "activity call": "inactive"}
{"gene knocked down": "Myod1", "combined z-score class": "no change with or without drug", "viability z-score with doxorubicin": 0, "viability z-score without drug": -0.17, "activity call": "inactive"}

Looked up above.
Grb10, viability z-score with doxorubicin = 0.67
For “combined z-score class”, Fam3b shows no change with or without drug
For “activity call”, Or13e8 is entered as inactive
